Some of these results come from one statement about several compounds together.
What was measured:
Format in all cases: in vivo
Myzus persicae = Myzus persicae (green peach aphid) sunflower leaf disc spray test; conditions: application rate 200 ppm, sunflower leaf discs sprayed, aphid population of mixed ages; mortality after 6 DAT
Diabrotica balteata = Diabrotica balteata (corn root worm) artificial diet test; conditions: application rate 200 ppm (concentration in well 18 ppm), L2 larvae, larval mortality, growth regulation after 5 days
Spodoptera littoralis = Spodoptera littoralis (Egyptian cotton leafworm) leaf disc spray test; conditions: application rate 200 ppm, cotton leaf discs sprayed, 5 μl larvae; mortality, feeding behaviour, growth regulation 3 days after treatment
Plutella xylostella = Plutella xylostella (diamond back moth) artificial diet test; conditions: application rate 200 ppm (concentration in well 18 ppm), L2 larvae, larval mortality, growth regulation after 6 days
Tetranychus urticae = Tetranychus urticae (two-spotted spider mite) bean leaf disc spray test; conditions: application rate 200 ppm, bean leaf discs sprayed, mite populations of mixed ages; egg, larval and adult mortality 8 days later
Heliothis virescens = Heliothis virescens (tobacco budworm) egg/artificial diet test; conditions: application rate 200 ppm (concentration in well 18 pm), eggs 0 to 24 h old on artificial diet; egg mortality, larval mortality, growth regulation after 4 days
Thrips tabaci = Thrips tabaci (onion thrips) sunflower leaf disc spray test; conditions: application rate 200 ppm, sunflower leaf discs sprayed, population of mixed ages; mortality after 7 days

Cn1nc(C(F)(F)C(F)(F)F)c(C(F)(F)F)c1-n1cc(-c2ccc(Cl)c(C(=O)NC3CC3)c2)nn1 [Compound A1, 2-Chloro-N-cyclopropyl-5-[1-(2-methyl-5-pentafluoroethyl-4-trifluoromethyl-2H-pyrazol-3-yl)-1H-[1,2,3]triazol-4-yl]-benzamide]
at least 80%: control of Myzus persicae (Myzus persicae) | control of Diabrotica balteata (Diabrotica balteata) | control of Spodoptera littoralis (Spodoptera littoralis) | control of Plutella xylostella (Plutella xylostella) | control of Tetranychus urticae (Tetranychus urticae) | control of Heliothis virescens (Heliothis virescens) | control of Thrips tabaci (Thrips tabaci)

From patent publication US20140005245A1, “INSECTICIDAL COMPOUNDS” (SYNGENTA PARTICIPATIONS AG, priority 2011, published 2014)
